Results from the supplement of paper PMC6411743.
± gives the standard deviation of the averaged measurements. The entries are a selection whose mix differs from that of the whole data set. Most values lie at the level of the controls, where differences are scatter.

By UniProt entry, the sequences of proteins in these tests, tags left out. Where a name states a change or a piece, a line headed by the entry shows the natural chain unless it says otherwise.
UniProt Q9H845: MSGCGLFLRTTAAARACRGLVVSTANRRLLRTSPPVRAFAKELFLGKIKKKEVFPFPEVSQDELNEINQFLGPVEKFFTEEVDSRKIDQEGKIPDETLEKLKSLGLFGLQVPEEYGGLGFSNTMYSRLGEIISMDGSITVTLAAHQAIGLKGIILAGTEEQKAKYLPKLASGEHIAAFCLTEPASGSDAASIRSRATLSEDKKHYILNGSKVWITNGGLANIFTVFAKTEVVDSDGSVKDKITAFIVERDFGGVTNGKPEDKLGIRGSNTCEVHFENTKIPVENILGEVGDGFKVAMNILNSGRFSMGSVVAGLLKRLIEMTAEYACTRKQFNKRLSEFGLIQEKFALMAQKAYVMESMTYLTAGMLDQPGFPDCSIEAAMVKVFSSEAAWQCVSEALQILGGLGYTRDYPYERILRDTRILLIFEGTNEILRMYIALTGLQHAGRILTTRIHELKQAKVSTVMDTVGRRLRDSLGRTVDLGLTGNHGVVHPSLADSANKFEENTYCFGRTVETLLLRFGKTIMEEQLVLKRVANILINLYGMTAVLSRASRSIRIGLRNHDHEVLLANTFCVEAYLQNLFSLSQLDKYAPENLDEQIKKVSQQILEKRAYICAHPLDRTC
UniProt Q9HBH0: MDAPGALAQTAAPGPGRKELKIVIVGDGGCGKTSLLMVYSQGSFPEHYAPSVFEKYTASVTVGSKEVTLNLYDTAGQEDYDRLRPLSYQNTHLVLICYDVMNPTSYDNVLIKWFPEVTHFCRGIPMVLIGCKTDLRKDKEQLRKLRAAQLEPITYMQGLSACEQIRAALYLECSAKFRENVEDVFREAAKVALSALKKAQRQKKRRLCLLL
UniProt Q9H7C9: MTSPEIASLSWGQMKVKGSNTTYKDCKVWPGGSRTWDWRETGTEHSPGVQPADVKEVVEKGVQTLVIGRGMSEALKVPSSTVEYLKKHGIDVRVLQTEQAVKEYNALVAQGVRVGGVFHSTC
UniProt Q9C0J8: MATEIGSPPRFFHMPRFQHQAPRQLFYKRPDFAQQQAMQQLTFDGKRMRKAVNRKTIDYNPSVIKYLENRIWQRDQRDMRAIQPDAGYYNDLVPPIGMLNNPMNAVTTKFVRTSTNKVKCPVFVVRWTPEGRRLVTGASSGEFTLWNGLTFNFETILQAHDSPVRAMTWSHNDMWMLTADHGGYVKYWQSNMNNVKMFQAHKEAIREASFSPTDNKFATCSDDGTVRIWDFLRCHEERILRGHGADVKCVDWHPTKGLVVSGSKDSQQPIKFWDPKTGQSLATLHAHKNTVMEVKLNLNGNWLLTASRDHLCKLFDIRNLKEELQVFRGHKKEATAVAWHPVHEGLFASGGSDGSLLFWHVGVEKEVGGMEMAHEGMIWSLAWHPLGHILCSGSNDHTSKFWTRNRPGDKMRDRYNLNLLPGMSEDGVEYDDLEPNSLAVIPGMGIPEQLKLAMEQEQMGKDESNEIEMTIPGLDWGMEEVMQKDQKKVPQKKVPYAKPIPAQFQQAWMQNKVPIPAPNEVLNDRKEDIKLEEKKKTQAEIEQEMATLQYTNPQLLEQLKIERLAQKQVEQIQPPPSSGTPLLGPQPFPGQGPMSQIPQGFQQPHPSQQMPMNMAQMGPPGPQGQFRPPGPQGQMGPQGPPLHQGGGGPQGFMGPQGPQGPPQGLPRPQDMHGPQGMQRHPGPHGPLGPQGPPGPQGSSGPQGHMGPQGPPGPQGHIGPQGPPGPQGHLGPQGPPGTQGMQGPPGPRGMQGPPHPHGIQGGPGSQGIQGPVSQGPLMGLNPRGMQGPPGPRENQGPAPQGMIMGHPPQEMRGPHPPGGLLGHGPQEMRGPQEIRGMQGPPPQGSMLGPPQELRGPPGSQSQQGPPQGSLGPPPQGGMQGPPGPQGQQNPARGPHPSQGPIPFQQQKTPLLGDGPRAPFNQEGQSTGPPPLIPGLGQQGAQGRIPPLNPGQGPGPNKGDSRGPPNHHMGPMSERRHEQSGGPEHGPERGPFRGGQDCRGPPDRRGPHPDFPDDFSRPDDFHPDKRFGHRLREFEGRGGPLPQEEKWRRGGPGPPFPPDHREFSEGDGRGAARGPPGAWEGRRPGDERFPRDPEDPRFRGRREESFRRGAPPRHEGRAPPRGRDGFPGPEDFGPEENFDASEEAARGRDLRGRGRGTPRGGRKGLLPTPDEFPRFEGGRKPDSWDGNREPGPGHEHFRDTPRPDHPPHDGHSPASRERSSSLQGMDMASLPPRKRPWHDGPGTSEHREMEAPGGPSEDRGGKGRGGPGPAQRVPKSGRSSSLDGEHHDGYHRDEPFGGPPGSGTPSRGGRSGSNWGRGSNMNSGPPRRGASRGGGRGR
UniProt Q9H4A6: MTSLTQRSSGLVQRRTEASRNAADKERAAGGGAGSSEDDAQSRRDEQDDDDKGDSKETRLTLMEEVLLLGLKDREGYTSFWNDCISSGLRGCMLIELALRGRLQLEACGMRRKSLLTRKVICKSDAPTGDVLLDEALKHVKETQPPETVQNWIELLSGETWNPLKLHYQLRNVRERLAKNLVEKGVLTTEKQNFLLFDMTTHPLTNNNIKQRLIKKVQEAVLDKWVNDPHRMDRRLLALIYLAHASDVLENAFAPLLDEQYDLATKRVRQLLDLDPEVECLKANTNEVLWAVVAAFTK
UniProt Q9H446: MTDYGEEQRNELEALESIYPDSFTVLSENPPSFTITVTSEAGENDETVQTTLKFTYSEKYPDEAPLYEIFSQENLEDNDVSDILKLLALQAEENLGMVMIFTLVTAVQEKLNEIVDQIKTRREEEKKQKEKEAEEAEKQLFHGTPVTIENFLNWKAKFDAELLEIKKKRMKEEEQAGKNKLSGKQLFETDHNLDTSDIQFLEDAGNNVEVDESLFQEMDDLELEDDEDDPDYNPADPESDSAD
UniProt Q9HD34: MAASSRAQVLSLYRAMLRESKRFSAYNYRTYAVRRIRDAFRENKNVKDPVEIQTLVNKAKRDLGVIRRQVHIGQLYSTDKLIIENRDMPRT
UniProt Q9HC35: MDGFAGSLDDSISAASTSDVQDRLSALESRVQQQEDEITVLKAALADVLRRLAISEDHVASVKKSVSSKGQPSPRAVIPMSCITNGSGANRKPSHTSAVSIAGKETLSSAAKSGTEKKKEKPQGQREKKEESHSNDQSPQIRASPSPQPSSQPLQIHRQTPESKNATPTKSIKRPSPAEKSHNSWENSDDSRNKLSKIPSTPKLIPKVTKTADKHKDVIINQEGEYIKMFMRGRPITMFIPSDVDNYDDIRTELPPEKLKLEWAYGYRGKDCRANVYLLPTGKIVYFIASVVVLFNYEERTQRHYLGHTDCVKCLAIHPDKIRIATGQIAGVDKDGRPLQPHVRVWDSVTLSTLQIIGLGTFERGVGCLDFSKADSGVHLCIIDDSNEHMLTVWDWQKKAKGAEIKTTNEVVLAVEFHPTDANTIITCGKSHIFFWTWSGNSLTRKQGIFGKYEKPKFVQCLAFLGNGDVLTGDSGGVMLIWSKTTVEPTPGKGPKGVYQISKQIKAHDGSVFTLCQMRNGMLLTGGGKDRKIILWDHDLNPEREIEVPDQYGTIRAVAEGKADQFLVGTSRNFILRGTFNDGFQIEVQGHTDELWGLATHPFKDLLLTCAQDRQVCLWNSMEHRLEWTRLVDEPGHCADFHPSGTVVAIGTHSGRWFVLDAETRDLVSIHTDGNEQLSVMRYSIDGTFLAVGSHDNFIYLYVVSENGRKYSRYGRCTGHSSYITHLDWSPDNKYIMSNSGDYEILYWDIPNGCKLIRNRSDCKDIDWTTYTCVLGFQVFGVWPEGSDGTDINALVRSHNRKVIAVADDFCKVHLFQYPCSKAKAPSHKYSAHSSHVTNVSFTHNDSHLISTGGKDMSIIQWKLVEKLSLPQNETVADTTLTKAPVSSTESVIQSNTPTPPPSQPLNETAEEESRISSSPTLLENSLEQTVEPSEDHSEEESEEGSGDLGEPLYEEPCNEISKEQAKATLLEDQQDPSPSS
UniProt Q9GZP4: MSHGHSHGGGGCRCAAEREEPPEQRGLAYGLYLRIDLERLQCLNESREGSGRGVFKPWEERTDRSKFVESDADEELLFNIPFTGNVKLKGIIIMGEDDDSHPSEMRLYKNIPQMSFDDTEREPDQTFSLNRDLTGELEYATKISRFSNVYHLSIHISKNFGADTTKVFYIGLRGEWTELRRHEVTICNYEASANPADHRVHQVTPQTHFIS
UniProt Q9H4A3: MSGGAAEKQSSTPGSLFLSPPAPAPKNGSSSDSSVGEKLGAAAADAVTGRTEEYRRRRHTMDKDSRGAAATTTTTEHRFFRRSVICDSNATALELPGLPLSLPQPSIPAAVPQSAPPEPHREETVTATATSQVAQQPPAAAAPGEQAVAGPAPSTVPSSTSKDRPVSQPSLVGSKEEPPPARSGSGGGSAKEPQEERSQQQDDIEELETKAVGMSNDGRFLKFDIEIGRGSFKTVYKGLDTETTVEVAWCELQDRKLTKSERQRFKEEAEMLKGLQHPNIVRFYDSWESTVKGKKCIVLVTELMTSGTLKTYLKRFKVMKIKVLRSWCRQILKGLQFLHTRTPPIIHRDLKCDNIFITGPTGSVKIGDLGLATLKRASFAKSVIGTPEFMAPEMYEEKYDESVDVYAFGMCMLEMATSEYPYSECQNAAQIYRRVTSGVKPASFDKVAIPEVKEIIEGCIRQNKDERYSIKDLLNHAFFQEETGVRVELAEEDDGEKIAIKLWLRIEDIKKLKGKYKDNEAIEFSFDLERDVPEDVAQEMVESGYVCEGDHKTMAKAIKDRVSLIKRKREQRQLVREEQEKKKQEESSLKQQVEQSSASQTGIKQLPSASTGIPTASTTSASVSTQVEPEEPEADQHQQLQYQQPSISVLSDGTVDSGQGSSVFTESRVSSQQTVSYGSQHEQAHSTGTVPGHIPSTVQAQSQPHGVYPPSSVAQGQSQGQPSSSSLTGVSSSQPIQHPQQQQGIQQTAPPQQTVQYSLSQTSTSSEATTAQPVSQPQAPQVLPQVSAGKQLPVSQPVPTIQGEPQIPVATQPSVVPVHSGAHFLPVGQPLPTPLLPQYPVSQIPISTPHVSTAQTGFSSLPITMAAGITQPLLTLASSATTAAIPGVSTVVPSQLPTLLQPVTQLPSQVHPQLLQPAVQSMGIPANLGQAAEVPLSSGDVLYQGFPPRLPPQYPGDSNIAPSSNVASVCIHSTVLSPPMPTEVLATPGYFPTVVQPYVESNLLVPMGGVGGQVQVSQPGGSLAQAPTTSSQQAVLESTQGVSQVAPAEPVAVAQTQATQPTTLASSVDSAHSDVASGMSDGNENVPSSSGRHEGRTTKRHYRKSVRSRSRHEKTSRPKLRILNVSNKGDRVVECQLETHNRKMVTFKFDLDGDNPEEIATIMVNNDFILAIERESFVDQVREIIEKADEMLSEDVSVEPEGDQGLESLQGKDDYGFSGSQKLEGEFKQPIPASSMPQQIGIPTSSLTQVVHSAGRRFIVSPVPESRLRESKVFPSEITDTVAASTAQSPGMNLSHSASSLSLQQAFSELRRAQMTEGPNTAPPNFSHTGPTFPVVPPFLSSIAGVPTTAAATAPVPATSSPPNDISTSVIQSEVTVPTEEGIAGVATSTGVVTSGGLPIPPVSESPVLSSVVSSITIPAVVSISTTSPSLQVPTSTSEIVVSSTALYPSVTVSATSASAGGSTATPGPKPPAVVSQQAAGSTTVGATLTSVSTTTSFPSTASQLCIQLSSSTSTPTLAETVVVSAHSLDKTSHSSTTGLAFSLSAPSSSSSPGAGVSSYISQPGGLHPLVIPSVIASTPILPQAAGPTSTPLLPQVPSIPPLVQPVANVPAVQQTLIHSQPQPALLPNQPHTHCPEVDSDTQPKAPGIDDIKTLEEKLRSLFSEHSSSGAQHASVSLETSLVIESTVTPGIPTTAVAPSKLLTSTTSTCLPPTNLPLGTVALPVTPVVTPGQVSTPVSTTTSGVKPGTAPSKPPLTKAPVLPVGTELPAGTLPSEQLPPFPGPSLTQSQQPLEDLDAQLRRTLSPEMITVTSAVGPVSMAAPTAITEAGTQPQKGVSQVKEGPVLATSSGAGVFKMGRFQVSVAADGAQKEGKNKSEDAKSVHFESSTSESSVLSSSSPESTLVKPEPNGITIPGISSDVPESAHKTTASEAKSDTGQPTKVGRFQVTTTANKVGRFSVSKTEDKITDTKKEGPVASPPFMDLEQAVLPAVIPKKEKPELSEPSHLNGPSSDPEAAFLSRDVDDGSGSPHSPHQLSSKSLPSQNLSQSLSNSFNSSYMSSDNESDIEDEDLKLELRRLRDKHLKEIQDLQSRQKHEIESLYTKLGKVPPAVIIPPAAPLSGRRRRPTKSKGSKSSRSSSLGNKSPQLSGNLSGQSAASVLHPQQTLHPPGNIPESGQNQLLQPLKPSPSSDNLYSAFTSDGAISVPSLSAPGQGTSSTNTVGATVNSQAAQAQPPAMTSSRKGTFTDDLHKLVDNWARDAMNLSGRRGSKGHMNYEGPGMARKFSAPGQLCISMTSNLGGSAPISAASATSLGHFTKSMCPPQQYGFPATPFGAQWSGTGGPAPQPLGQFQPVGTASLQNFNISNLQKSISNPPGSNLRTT

Compound: Nc1ncnc2c1ncn2[C@@H]1O[C@H](COP(=O)(O)OP(=O)(O)OP(=O)(O)O)[C@@H](O)[C@H]1O [adenosine triphosphate]
Assay: NP40-soluble protein abundance relative to vehicle (solubility fold change) (ratio); higher = more soluble protein in presence of ATP
Procedure, shortened: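 Eight concentrations, 0.1 to 10 mM, were tested on Jurkat crude lysate for 10 min at room temperature and then 3 min at 37 °C, in three independent experiments. The lysate was solubilised with 0.8% NP40 and benzonase, ultracentrifuged, and the supernatant TMT-labelled for LC-MS/MS. Each value is the fold change against the detergent-processed vehicle in its own replicate, from vsn-normalised intensities.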

Target	NP40-soluble protein abundance (concentration: 0.1mM)	NP40-soluble protein abundance (concentration: 0.5mM)
GOLPH3L (UniProt Q9H4A5)	0.99 ± 0.042	0.998 ± 0.015
SUDS3 (UniProt Q9H7L9)	0.969 ± 0.033	0.965 ± 0.047
UniProt Q9H6Q4	1.03 ± 0.071	0.963 ± 0.029
PARL (UniProt Q9H300)	0.891 ± 0.066	0.929 ± 0.16
UniProt Q9HA65 and related entries	0.963 ± 0.029	0.982 ± 0.013
POLR3F (UniProt Q9H1D9)	1.04 ± 0.039	0.984 ± 0.049
BLZF1 (UniProt Q9H2G9)	1.03 ± 0.1	1.02 ± 0.026
UniProt Q9H0X4	0.916 ± 0.067	0.891 ± 0.091
UniProt Q9C0F1	0.993 ± 0.09	0.922 ± 0.028
UniProt Q9HCM1	0.98 ± 0.1	1 ± 0.16
UniProt Q9H4A4 and related entries	1.05 ± 0.057	1.05 ± 0.041
SLC25A19 (UniProt Q9HC21)	0.931 ± 0.019	0.918 ± 0.067
GGNBP2 (UniProt Q9H3C7)	1.07 ± 0.14	1.07 ± 0.12
UniProt Q9H2H8 and related entries	1.02 ± 0.047	1.05 ± 0.089
ACAD9 (UniProt Q9H845)	1.02 ± 0.068	1.04 ± 0.046
UniProt Q9H871	1.03 ± 0.069	1.02 ± 0.1
UniProt Q9H9E3 and related entries	1.03 ± 0.029	1.01 ± 0.058
UniProt Q9GZM8 and related entries	0.899 ± 0.25	0.795 ± 0.27
UniProt Q9H7E2-3	0.996 ± 0.059	0.985 ± 0.034
UNK (UniProt Q9C0B0)	1.02 ± 0.025	1.05 ± 0.053
PLEKHF2 (UniProt Q9H8W4)	1.03 ± 0.057	1 ± 0.035
COMMD4 (UniProt Q9H0A8)	0.951 ± 0.029	0.963 ± 0.055
ETNK1 (UniProt Q9HBU6)	1.04 ± 0.089	1.07 ± 0.047
DNTTIP1 (UniProt Q9H147)	1.016 ± 0.0067	1.04 ± 0.031

Target	NP40-soluble protein abundance (concentration: 0.1mM)	NP40-soluble protein abundance (concentration: 0.5mM)
SPRTN (UniProt Q9H040)	0.97 ± 0.11	0.94 ± 0.17
SLC38A10 (UniProt Q9HBR0)	0.946 ± 0.053	0.835 ± 0.089
UniProt Q9H165 and related entries	1.05 ± 0.19	0.993 ± 0.11
ILKAP (UniProt Q9H0C8)	1.03 ± 0.08	1.05 ± 0.075
SSU72 (UniProt Q9NP77)	1.06 ± 0.033	1.03 ± 0.047
RHOF (UniProt Q9HBH0)	1.07 ± 0.19	1.08 ± 0.13
REEP4 (UniProt Q9H6H4)	1.02 ± 0.061	0.996 ± 0.068
UniProt Q9H6Z4 and related entries	0.9739 ± 0.0088	0.966 ± 0.03
UniProt Q9H3H1 and related entries	1.05 ± 0.072	1.04 ± 0.053
UniProt Q9H7C9	0.933 ± 0.05	0.905 ± 0.098
UniProt Q9H3H3-2|Q9H3H3-3	0.991 ± 0.1	0.977 ± 0.042
UniProt Q9H1K0	0.906 ± 0.065	0.92 ± 0.064
UniProt Q9H2P9 and related entries	1.02 ± 0.06	0.994 ± 0.011
UniProt Q9H1E5	0.94 ± 0.07	0.935 ± 0.095
WDR33 (UniProt Q9C0J8)	1.01 ± 0.013	1.15 ± 0.027
UniProt Q9H3R0 and related entries	1.11 ± 0.092	1.016 ± 0.0026
UniProt Q9H7P9 and related entries	0.981 ± 0.046	0.976 ± 0.1
MRPS30 (UniProt Q9NP92)	0.934 ± 0.096	1.01 ± 0.1
C12orf10 (UniProt Q9HB07)	1.04 ± 0.032	1.02 ± 0.053
CDT1 (UniProt Q9H211)	1.01 ± 0.022	1 ± 0.088
MRPL44 (UniProt Q9H9J2)	0.97 ± 0.081	1.01 ± 0.082
SCAF1 (UniProt Q9H7N4)	1.05 ± 0.031	1.256 ± 0.012
GAN (UniProt Q9H2C0)	1.05 ± 0.085	1.02 ± 0.13
UniProt Q9H330 and related entries	0.982 ± 0.034	0.941 ± 0.058

Target	NP40-soluble protein abundance (concentration: 0.1mM)	NP40-soluble protein abundance (concentration: 0.5mM)
OSGEPL1 (UniProt Q9H4B0)	1.07 ± 0.087	1.08 ± 0.018
SHARPIN (UniProt Q9H0F6)	0.99 ± 0.028	0.931 ± 0.042
ALG2 (UniProt Q9H553)	1.12 ± 0.063	1.06 ± 0.082
UniProt Q9H7Z3 and related entries	1.04 ± 0.014	1.04 ± 0.039
MVB12B (UniProt Q9H7P6)	0.994 ± 0.026	0.957 ± 0.064
UniProt Q9H4L7 and related entries	1.02 ± 0.034	1.01 ± 0.045
REXO4 (UniProt Q9GZR2)	1.01 ± 0.05	1.022 ± 0.0097
TMEM126A (UniProt Q9H061)	0.968 ± 0.011	1.01 ± 0.04
GOLPH3 (UniProt Q9H4A6)	0.977 ± 0.025	0.986 ± 0.063
UniProt Q9H477 and related entries	1.1 ± 0.056	1.04 ± 0.058
UniProt Q9H446 and related entries	1.01 ± 0.06	1.04 ± 0.1
FN3KRP (UniProt Q9HA64)	1.04 ± 0.063	1.07 ± 0.058
YTHDC2 (UniProt Q9H6S0)	1.12 ± 0.032	1.25 ± 0.029
CHMP4B (UniProt Q9H444)	0.998 ± 0.11	1.02 ± 0.17
TSPYL1 (UniProt Q9H0U9)	0.951 ± 0.014	0.99 ± 0.04
LYRM4 (UniProt Q9HD34)	0.917 ± 0.072	0.943 ± 0.052
EML4 (UniProt Q9HC35)	1 ± 0.015	0.992 ± 0.015
UniProt Q9HCJ0 and related entries	0.979 ± 0.07	0.978 ± 0.099
UniProt Q9H9T3 and related entries	1.04 ± 0.061	1.05 ± 0.018
UniProt Q9H832 and related entries	1.01 ± 0.021	0.969 ± 0.036
UniProt Q9C0D5 and related entries	0.996 ± 0.051	0.994 ± 0.056
UniProt Q9HD33 and related entries	0.87 ± 0.14	0.916 ± 0.18
UniProt Q9H6R7 and related entries	0.969 ± 0.085	0.956 ± 0.098
UniProt Q9H098 and related entries	0.915 ± 0.17	1.01 ± 0.09

A stretch from further up:
Target	NP40-soluble protein abundance (concentration: 0.1mM)	NP40-soluble protein abundance (concentration: 0.5mM)
ALG2 (UniProt Q9H553)	1.12 ± 0.063	1.06 ± 0.082
UniProt Q9H7Z3 and related entries	1.04 ± 0.014	1.04 ± 0.039
MVB12B (UniProt Q9H7P6)	0.994 ± 0.026	0.957 ± 0.064
UniProt Q9H4L7 and related entries	1.02 ± 0.034	1.01 ± 0.045
REXO4 (UniProt Q9GZR2)	1.01 ± 0.05	1.022 ± 0.0097
TMEM126A (UniProt Q9H061)	0.968 ± 0.011	1.01 ± 0.04
GOLPH3 (UniProt Q9H4A6)	0.977 ± 0.025	0.986 ± 0.063

(further entries)

Target	NP40-soluble protein abundance (concentration: 0.1mM)	NP40-soluble protein abundance (concentration: 0.5mM)
UniProt Q9H3N1	0.959 ± 0.022	0.988 ± 0.04
QRSL1 (UniProt Q9H0R6)	1.02 ± 0.042	1.04 ± 0.063
CACYBP (UniProt Q9HB71)	0.976 ± 0.043	1.01 ± 0.036
CBX8 (UniProt Q9HC52)	1.02 ± 0.034	1.06 ± 0.05
TOLLIP (UniProt Q9H0E2)	1.01 ± 0.025	0.981 ± 0.021
GHITM (UniProt Q9H3K2)	0.978 ± 0.033	0.974 ± 0.076
UniProt Q9H0F7 and related entries	1.16 ± 0.13	1.05 ± 0.047
UniProt Q9H8M2 and related entries	0.996 ± 0.012	1.05 ± 0.046
PREB (UniProt Q9HCU5)	1.02 ± 0.077	1.03 ± 0.051
UniProt Q9H7H0 and related entries	0.961 ± 0.051	1.06 ± 0.12
VPS16 (UniProt Q9H269)	1.05 ± 0.06	0.971 ± 0.056
JPH1 (UniProt Q9HDC5)	1.01 ± 0.018	1.16 ± 0.12
UniProt Q9H8W3	1.04 ± 0.07	1.18 ± 0.082
UniProt Q9GZU8	0.938 ± 0.044	0.917 ± 0.028
PTPN23 (UniProt Q9H3S7)	1.06 ± 0.067	1.04 ± 0.028
UniProt Q9GZP4	1.01 ± 0.075	1 ± 0.063
UniProt Q9H7Z6 and related entries	1.02 ± 0.026	1.05 ± 0.043
UniProt Q9C0B7	0.996 ± 0.13	1.07 ± 0.1
UBA5 (UniProt Q9GZZ9)	1.01 ± 0.058	1.03 ± 0.056
WDR55 (UniProt Q9H6Y2)	1.1 ± 0.022	1.1 ± 0.14
ANKZF1 (UniProt Q9H8Y5)	1.04 ± 0.032	1.03 ± 0.054
UniProt Q9HCE0 and related entries	0.953 ± 0.035	1 ± 0.09
POFUT1 (UniProt Q9H488)	1.02 ± 0.04	0.984 ± 0.012
RAB1B (UniProt Q9H0U4)	0.976 ± 0.021	1.01 ± 0.019

Target	NP40-soluble protein abundance (concentration: 0.1mM)	NP40-soluble protein abundance (concentration: 0.5mM)
UniProt Q9HAU0 and related entries	0.956 ± 0.085	0.958 ± 0.086
UniProt Q9H008 and related entries	0.984 ± 0.047	0.983 ± 0.02
UNC93B1 (UniProt Q9H1C4)	1.28 ± 0.15	1.04 ± 0.14
UniProt Q9H2G2-2	0.988 ± 0.033	1.01 ± 0.032
DEF6 (UniProt Q9H4E7)	1 ± 0.032	0.968 ± 0.036
MED20 (UniProt Q9H944)	0.991 ± 0.025	1.02 ± 0.022
UniProt Q9H074 and related entries	0.919 ± 0.059	0.907 ± 0.067
UniProt Q9GZY8-2|Q9GZY8-5	0.998 ± 0.031	0.93 ± 0.11
RAB3GAP2 (UniProt Q9H2M9)	1.06 ± 0.051	1.05 ± 0.049
UniProt Q9H7E9 and related entries	0.915 ± 0.15	0.925 ± 0.21
EHD4 (UniProt Q9H223)	1.04 ± 0.052	1.03 ± 0.042
PDF (UniProt Q9HBH1)	0.983 ± 0.015	0.954 ± 0.038
UniProt Q9H668	0.925 ± 0.18	0.991 ± 0.15
UCK1 (UniProt Q9HA47)	0.958 ± 0.041	0.904 ± 0.14
UniProt Q9H8U3 and related entries	0.934 ± 0.035	0.897 ± 0.074
UniProt Q9GZT3	0.941 ± 0.064	0.931 ± 0.12
UniProt Q9H3U1 and related entries	0.997 ± 0.036	0.969 ± 0.034
UniProt Q9H857 and related entries	1.06 ± 0.068	1.02 ± 0.082
UniProt Q9C0E8 and related entries	0.957 ± 0.022	0.973 ± 0.025
PLEKHA1 (UniProt Q9HB21)	1 ± 0.065	1.02 ± 0.03
UniProt Q9H4A3 and related entries	1.01 ± 0.02	1.03 ± 0.063
WDR76 (UniProt Q9H967)	1.03 ± 0.035	1.08 ± 0.12
MTIF3 (UniProt Q9H2K0)	0.976 ± 0.13	0.946 ± 0.11
KLC2 (UniProt Q9H0B6)	0.977 ± 0.012	0.994 ± 0.045
